Reference: article PMC9018842
These are yes or no findings as the source states them, for the method shown. In cells and extracts the contact can be indirect. Some binding calls cover weakened binding; strength is not graded here.

By UniProt entry, the sequences of proteins in these tests, tags left out.
UniProt D4A523: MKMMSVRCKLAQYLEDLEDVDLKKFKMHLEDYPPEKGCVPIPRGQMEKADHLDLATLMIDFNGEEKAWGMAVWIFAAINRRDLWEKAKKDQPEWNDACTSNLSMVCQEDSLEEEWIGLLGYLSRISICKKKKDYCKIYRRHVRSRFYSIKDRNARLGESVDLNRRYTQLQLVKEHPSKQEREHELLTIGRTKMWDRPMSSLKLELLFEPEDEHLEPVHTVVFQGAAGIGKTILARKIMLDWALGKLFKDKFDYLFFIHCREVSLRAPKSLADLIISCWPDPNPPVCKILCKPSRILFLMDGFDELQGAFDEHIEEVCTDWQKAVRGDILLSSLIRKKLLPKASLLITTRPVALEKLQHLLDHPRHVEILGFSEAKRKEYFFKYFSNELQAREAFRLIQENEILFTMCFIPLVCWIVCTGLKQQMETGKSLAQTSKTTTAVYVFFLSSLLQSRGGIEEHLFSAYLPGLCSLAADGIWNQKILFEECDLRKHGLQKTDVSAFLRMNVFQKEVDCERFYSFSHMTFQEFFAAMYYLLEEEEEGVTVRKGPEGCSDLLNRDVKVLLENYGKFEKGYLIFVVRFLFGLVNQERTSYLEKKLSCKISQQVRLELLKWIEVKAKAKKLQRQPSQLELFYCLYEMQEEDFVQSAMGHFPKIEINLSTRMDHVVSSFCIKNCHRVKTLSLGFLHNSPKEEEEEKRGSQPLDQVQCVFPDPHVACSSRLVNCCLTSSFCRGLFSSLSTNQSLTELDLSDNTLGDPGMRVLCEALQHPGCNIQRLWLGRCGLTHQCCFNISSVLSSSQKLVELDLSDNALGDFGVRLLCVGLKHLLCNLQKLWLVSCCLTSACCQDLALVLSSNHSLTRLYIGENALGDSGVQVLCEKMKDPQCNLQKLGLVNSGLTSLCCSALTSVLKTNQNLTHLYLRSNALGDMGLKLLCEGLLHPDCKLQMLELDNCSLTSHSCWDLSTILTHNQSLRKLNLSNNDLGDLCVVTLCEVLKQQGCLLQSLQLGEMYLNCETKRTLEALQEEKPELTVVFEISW

Biological target: T1, thioredoxin-interacting protein (TXNIP) (rat (endogenous in rat NP cells)) (UniProt Q5M7W1)
T1 sequence: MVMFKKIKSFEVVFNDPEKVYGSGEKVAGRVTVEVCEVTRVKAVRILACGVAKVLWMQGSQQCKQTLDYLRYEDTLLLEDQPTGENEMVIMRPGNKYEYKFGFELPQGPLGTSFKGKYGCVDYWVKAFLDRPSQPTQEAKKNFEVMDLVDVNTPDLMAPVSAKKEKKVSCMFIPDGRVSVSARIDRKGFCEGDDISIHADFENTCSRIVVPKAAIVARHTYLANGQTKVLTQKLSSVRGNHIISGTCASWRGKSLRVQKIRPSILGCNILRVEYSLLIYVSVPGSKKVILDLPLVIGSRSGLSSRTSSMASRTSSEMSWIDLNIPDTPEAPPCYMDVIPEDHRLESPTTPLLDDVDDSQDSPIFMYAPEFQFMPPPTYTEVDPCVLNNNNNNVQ
Assay: co-IP; Pierce Classic Magnetic Co-IP kit; lysates of rat NP cells incubated with anti-TXNIP antibody overnight at 4 °C, protein A/G magnetic beads 1 h at room temperature, blot with anti-NLRP3; cells treated with or without H2O2, MFG-E8, Nrf2 siRNA

For NLRP3 (from UniProt D4A523 1-1035), the binding was “binds”.
